Laboratory results reported in US9216215B2, “Adjuvant system for vaccine adjuvant” (VAXFORM LLC, priority 2010, dated 2015).
Some of these results come from one statement about several compounds together.

Assay: Stability of CTL agonist linkage to aluminum oxyhydroxide on exposure to phosphate (FIG. 3A, 3B)
Type: physicochemical
Conditions: 50 mM phosphate pH 7.4 for 30 minutes, presence of antigen, FIG. 3B
Description: It is important to maintain the stability of the CTL agonist linkage to the aluminum particle upon exposure to body fluid following administration. Components of interstitial fluid such as phosphate, citrate, and protein have the potential to remove the linkage of the CTL agonist with aluminum-containing adjuvants. The resulting soluble CTL agonist may adversely impact the immune response. FIG. 3A illustrates that MIP as well as mannan maintain approximately 100% linkage with aluminum oxyhydroxide when exposed to 50 mM phosphate pH 7.4 for 30 minutes in the absence of antigen.

## mannan
  linkage with aluminum oxyhydroxide maintained: less than 100%
